These results are taken from PMC8148049 (Chemical Science, 2019).

HELM strings list residues between dots; [ac] is acetyl, [am] amide, other brackets name non-standard units.

Data set [1] in a line: general procedure: peptide synthesis; 2-chlorotrityl chloride polystyrene resin (Merck Novabiochem); DIC and Oxyma. The conditions noted are these: HPLC-MS.
Data set [2] in a line: general procedure: peptide synthesis; 2-chlorotrityl polystyrene resin (0.65 mmol/g); DIC and Oxyma. The conditions noted are these: whole synthesis, scale 56.6 μmol.

On to “PEPTIDE1{A.Y.Q.[dK].F.L.[Trp(redBODIPY)].[Nle].E.A}$PEPTIDE1,PEPTIDE1,1:R1-10:R2$$$V2.0”, for which the “final LC-MS purity” value in data set [1] (late stage modification step) turned out to be 99%.

On to “PEPTIDE1{A.Y.Q.[dK].F.L.W.[Nle].E.A}$PEPTIDE1,PEPTIDE1,1:R1-10:R2$$$V2.0”, for which the “final LC-MS purity” value in data set [1] (whole synthesis) is given as 98%. Also, in data set [2], the isolated mass amounted to 14.1 mg.
